According to US20250152730A1, “ANTI-TM4SF1 ANTIBODY-DRUG CONJUGATES COMPRISING CLEAVABLE LINKERS AND METHODS OF USING SAME” (Angiex, Inc., priority 2022, published 2025):
No constants are given. Whether binding was seen depends on the method and setting. Some results given as binding are weak or reduced against the parent protein; the word gives no strength. Where a sequence is shown, tags or fusion partners need not be part of it.

T1: human TM4SF1 (transmembrane-4 L six family member-1) on HUVEC cells (human) (UniProt P30408)
T1 sequence: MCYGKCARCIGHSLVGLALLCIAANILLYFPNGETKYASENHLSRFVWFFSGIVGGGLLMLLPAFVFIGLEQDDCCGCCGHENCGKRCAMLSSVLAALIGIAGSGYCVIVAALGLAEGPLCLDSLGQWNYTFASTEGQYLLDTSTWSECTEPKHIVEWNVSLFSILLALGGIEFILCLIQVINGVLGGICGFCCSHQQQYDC

T2: TM4SF1 (as named in the statement on the antibody screen) (Homo sapiens (Human)) (UniProt P30408)
T2 sequence: T1 sequence

B1: AGX-A07 anti-TM4SF1 antibody (without Fc region mutations) (antibody, V domains shown)
VH: QIQLVQSGPELKKPGETVKISCKASGYTFTNYGVKWVKQAPGKDLKWMGWINTYTGNPIYAADFKGRFAFSLETSASTAFLQINNLKNEDTATYFCVRFQYGDYRYFDVWGAGTTVTVSS
VL: QIILSQSPAILSASPGEKVTMTCRANSGISFINWYQQKPGSSPKPWIYGTANLASGVPARFGGSGSGTSYSLTISRVEAEDAATYYCQQWSSNPLTFGAGTKLELR
B2: AGX-A07 variant comprising Fc region mutation N297C (antibody, V domains shown)
VH: B1 VH
VL: B1 VL
B3: AGX-A07 variant comprising Fc region mutations N297C, M252Y, S254T and T256E (antibody, V domains shown)
VH: B1 VH
VL: B1 VL
B4: murine monoclonal antibody AGX-A08 (antibody, V domains shown)
VH: EVQLQQSGPELVKPGASVKLSCKASGYTVTSYVMHWVKQKPGQGLEWIGYINPYSDVTNCNEKFKGKATLTSDKTSSTAYMELSSLTSEDSAVYYCSSYGGGFAYWGQGTLVTVSA
VL: DIQMTQSPASLSASVGEPVTITCRASKNIYTYLAWYHQKQGKSPQFLVYNARTLAGGVPSRLSGSGSVTQFSLNINTLHREDLGTYFCQHHYDTPYTFGGGTNLEIK
B5: murine monoclonal antibody AGX-A09 (antibody, V domains shown)
VH: EVQLQQSGPELVKPGASVKMSCKASGYTFSSYVMHWVKQKPGQGLEWIGYINPYSDVTNYNEKFKGKATLTSDRSSNTAYMELSSLTSEDSAVYYCARNYFDWGRGTLVTVSA
VL: DIQMTQSPASLSASVGETVTITCRASKNVYSYLAWFQQKQGKSPQLLVYNAKTLAEGVPSRFSGGGSGTQFSLKINSLQPADFGSYYCQHHYNIPFTFGSGTKLEIK
B6: murine monoclonal antibody AGX-A03 (antibody, V domains shown)
VH: QIQLVQSGPELKKPGETVKISCKASGYSFRDYGMNWVKQAPGRTFKWMGWINTYTGAPVYAADFKGRFAFSLDTSASAAFLQINNLKNEDTATYFCARWVSYGNNRNWFFDFWGAGTTVTVSS
VL: DVLMTQTPLSLPVRLGDQASISCRSSQTLVHSNGNTYLEWYLQKPGQSPKLLIYKVSNRLSGVPDRFSGSGSGTDFTLKISRVETEDLGVYYCFQGSHGPWTFGGGTKLEIK
B7: murine monoclonal antibody AGX-A04 (antibody, V domains shown)
VH: EVQLQQSGPELVKPGASVKISCKTSGYTFTDYTMHWVRQSHGKSLEWIGSFNPNNGGLTNYNQKFKGKATLTVDKSSSTVYMDLRSLTSEDSAVYYCTRIRATGFDSWGQGTTLTVSS
VL: DIVMSQSPSSLAVSAGEKVTMSCKSSQSLLNSRTRKNYLAWYQQKPGQSPKLLIYWASTRESGVPDRFTGSGSGTDFTLTISNVQAEDLTVYYCKQSYNPPWTFGGGTKLEIK
B8: murine monoclonal antibody AGX-A05 (antibody, V domains shown)
VH: EVQVQQSGPELVKPGASVKMSCKASGYTFTSYVMHWVKQKPGQGLEWIGYINPNNDNINYNEKFKGKASLTSDKSSNTVYMELSSLTSEDSAVYYCAGYGNSGANWGQGTLVTVSA
VL: DIQMTQSPASLSASVGETVTITCRTSKNIFNFLAWYHQKQGRSPRLLVSHTKTLAAGVPSRFSGSGSGTQFSLKINSLQPEDFGIYYCQHHYGTPWTFGGGTKLEIK

These binders were tested against T1, human TM4SF1 (transmembrane-4 L six family member-1) on HUVEC cells (human) (assay: cell-based flow cytometry on HUVEC cells).

binding, binds:
B1
B2
B3

The binders below were run against T2, TM4SF1 (as named in the statement on the antibody screen) (Homo sapiens (Human)) (assay: screen referred to in the description; method not detailed).

binding, binds:
B1
B4
B5
B6
B7
B8
